Results: publication PMC11267363, “Supramolecular Nanofibers Ameliorate Bleomycin‐Induced Pulmonary Fibrosis by Restoring Autophagy” (Advanced Science, 2024)
These are yes or no findings as the source states them, for the method shown. For some assays here: In cells and extracts the contact can be indirect. Some entries that bind do so weakly or less than the wild type.

Protein sequences, listed by entry. Tags and fused reporters are not part of them. Residues count along the entry.
UniProt Q96RU7: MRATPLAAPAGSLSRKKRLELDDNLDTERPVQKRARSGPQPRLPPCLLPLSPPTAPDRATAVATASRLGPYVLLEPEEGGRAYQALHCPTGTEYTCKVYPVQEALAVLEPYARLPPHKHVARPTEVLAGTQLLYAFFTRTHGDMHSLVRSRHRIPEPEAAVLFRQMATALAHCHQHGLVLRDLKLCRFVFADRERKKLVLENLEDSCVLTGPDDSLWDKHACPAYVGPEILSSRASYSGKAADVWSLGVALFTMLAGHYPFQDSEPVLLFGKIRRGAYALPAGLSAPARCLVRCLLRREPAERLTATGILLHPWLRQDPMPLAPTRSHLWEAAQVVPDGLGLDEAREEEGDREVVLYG
UniProt P02769, residues 25-607: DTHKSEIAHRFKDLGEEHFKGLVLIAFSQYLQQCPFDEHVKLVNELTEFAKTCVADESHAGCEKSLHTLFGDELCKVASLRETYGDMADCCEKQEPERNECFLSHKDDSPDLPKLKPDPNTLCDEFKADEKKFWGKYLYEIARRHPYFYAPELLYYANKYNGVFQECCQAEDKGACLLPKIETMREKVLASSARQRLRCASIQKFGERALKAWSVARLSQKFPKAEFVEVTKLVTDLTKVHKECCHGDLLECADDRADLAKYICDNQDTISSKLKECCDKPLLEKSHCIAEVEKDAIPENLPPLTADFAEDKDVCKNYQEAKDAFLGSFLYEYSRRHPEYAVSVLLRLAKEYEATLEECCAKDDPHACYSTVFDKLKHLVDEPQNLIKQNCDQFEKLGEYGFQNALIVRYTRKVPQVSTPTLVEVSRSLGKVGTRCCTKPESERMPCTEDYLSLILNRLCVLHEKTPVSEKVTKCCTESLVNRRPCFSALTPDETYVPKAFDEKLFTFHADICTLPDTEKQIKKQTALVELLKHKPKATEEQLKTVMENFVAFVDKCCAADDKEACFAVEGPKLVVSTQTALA

T1: TRB3, endogenous in mouse lung tissue (mouse (endogenous in C57BL/6 lung tissue)) (UniProt Q8K4K2)
T1 sequence: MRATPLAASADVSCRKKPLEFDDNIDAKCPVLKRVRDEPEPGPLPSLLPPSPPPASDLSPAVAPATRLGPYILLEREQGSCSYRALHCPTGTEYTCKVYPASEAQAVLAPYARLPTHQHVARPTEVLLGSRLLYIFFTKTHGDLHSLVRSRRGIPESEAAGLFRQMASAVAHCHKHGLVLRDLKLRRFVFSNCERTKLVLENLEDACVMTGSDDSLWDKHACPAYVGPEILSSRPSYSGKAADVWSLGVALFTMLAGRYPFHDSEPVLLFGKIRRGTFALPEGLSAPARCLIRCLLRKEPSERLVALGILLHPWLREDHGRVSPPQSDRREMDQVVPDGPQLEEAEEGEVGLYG


Legend:
[1] = biological target: TRB3, endogenous in MRC-5 human lung fibroblasts (human (endogenous in MRC-5)) (UniProt Q96RU7); assay: co-IP; MRC-5 cells treated with TGF-β1 (10 ng/mL) and saline, A2 (50 µM) or Ac-GFFY-A2 (50 µM); endogenous proteins; which protein was precipitated is not told
[2] = biological target: bovine serum albumin (bovine) (UniProt P02769); assay: MST; Monolith NT.115; Ac-GFFY-A2 or A2 against human TRB3 protein or BSA (negative control); which partner was labelled is not told; both purified
[3] = biological target: T1, TRB3, endogenous in mouse lung tissue (mouse (endogenous in C57BL/6 lung tissue)); assay: co-IP; peptide nanofibers given i.v. to bleomycin-injured mice; loss of the TRB3/p62 co-precipitate from lung tissue as read-out of the peptide on endogenous TRB3; only the binder purified
[4] = biological target: TRB3, endogenous in MRC-5 human lung fibroblasts (human (endogenous in MRC-5)) (UniProt Q96RU7); assay: co-IP; synthetic peptide (50 µM) added to TGF-β1 treated MRC-5 cells; loss of the TRB3/p62 co-precipitate as read-out of the peptide on endogenous TRB3; only the binder purified

| binding [1] | binding [2] | binding [4] | Molecule | binding [3] |
| --- | --- | --- | --- | --- |
| binds |  |  | p62, endogenous in MRC-5 human lung fibroblasts (from UniProt Q13501 1-440) |  |
|  | no binding |  | GGWLTRLLQTK (also called non-self-assembling peptide A2; source: synthetic peptide (SPPS, purified by HPLC)) [A2 peptide (TRB3-binding peptide fragment derived from p62)] |  |
|  | no binding | binds | GFFYGGWLTRLLQTK (acetyl on the N-terminus) | binds |
